Results reported in paper PMC8576121.
No constants are given. Whether binding was seen depends on the method and setting. In cells and extracts the contact can be indirect. These calls come from enrichment with a bait or labelling near it, and not all partners need be listed. Each block holds one binder with its values, some of them ahead of it.

How the values were obtained:
Test in all cases: affinity purification with mass spectrometry; N-His6 bait overproduced in H. volcanii; cytoplasmic extract on nickel chelating sepharose at room temperature in 2.1 M NaCl, 20 mM HEPES, 20 mM imidazole; four washes with 30 mM imidazole, elution with 700 mM imidazole; no RNase step, no cross-linking; co-isolated proteins identified by LC-MS/MS; three biological replicates; proteins found in the empty-vector or DHFR controls removed
[1] = biological target: T1, DNA-directed RNA polymerase subunit Rpo5 (Haloferax volcanii) (UniProt D4GZX3)
T1 sequence: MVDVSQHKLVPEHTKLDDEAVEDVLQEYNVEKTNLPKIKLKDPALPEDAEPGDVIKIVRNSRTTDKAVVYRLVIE

[2] = biological target: T2, translation initiation factor aIF2 beta subunit / probable RNA-binding protein (aIF2β-2) (Haloferax volcanii) (UniProt D4GVV8)
T2 sequence: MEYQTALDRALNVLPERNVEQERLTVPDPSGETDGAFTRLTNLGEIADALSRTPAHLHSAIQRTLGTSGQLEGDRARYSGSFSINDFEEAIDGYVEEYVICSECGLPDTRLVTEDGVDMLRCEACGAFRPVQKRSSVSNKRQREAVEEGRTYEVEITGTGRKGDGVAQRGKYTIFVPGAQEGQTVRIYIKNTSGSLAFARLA

[3] = biological target: T3, translation initiation factor aIF2 gamma subunit (Haloferax volcanii) (UniProt D4GTD4)
T3 sequence: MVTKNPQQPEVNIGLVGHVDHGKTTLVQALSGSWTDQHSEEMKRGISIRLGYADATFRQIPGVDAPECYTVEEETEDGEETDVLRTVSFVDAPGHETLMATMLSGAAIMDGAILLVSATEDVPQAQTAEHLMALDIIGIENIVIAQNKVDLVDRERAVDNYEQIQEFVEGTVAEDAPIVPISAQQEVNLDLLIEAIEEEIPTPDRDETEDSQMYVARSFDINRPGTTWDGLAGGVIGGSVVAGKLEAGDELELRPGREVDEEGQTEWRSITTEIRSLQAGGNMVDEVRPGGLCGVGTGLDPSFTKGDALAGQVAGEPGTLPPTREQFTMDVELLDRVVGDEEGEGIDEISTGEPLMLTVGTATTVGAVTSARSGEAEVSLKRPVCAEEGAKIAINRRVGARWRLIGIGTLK

[4] = biological target: T4, translation initiation factor aIF2 alpha subunit (Haloferax volcanii) (UniProt D4GT46)
T4 sequence: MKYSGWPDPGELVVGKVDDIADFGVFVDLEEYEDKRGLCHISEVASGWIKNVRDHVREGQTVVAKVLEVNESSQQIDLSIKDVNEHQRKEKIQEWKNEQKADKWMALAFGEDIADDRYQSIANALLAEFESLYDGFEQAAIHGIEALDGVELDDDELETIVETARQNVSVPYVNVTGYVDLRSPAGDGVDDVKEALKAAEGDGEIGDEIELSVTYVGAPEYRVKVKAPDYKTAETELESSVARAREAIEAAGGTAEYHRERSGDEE

binding [1]: binds
binding [2]: binds
binding [3]: binds
B1: translation initiation factor aIF2 alpha subunit (protein, UniProt D4GT46 1-266)
chain: T4 sequence

binding [4]: binds
binding [3]: binds
B2: translation initiation factor aIF2 beta subunit / probable RNA-binding protein (aIF2β-2) (protein, UniProt D4GVV8 1-202)
chain: T2 sequence
